From publication doi:10.1101/2025.09.01.673436
Results are given in words; binding and its absence hold for the method and conditions named. In cells and extracts the contact can be indirect. Some entries that bind do so weakly or less than the wild type. Tags and fused reporters may be left off the sequences shown.

Target: EGFP-tagged full-length Drosophila Notch (Notch–EGFP), wild type (Drosophila) (UniProt P07207)
Assay: co-IP

B1: luciferase-tagged Drosophila Notch LNR domain (LNR–Luciferase), wild type (domain or fragment, UniProt P07207 1465-1600)
chain: GSGNDRYAADLEQQRAMCDKRGCTEKQGNGICDSDCNTYACNFDGNDCSLGINPWANCTANECWNKFKNGKCNEECNNAACHYDGHDCERKLKSCDSLFDAYCQKHYGDGFCDYGCNNAECSWDGLDCENKTQSPV
With B1 the binding was “binds”.
